{"sequences": {"note": "Chains of the proteins cited; added tags and fusions are not shown.", "UniProt O14980": "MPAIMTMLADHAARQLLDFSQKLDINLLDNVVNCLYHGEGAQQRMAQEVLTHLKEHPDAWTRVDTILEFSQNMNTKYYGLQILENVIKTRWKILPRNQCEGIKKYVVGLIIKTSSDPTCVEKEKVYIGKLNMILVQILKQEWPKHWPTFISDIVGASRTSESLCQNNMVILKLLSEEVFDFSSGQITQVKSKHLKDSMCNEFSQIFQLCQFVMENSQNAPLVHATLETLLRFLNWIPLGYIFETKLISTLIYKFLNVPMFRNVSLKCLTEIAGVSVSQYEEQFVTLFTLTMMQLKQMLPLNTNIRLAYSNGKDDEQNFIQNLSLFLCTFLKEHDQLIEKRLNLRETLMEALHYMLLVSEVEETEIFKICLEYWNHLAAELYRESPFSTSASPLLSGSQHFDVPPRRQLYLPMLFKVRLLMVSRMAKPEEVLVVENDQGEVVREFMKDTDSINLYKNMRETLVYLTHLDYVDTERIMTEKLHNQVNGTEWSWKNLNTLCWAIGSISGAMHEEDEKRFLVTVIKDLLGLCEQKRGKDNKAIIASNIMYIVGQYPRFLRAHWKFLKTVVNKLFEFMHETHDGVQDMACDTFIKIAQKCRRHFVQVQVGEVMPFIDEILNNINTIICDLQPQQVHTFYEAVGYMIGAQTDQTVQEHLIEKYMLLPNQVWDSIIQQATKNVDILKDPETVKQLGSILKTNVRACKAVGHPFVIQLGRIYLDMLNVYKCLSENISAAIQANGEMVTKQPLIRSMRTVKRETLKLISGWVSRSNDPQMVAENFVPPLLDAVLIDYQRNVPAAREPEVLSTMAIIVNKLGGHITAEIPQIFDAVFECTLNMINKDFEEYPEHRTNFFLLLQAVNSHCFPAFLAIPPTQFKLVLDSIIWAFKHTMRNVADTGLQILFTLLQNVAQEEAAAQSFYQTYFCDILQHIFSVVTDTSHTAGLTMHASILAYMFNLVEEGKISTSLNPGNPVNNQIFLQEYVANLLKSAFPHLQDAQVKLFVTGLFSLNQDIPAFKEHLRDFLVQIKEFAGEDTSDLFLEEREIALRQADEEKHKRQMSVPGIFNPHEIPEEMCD", "UniProt P15682": "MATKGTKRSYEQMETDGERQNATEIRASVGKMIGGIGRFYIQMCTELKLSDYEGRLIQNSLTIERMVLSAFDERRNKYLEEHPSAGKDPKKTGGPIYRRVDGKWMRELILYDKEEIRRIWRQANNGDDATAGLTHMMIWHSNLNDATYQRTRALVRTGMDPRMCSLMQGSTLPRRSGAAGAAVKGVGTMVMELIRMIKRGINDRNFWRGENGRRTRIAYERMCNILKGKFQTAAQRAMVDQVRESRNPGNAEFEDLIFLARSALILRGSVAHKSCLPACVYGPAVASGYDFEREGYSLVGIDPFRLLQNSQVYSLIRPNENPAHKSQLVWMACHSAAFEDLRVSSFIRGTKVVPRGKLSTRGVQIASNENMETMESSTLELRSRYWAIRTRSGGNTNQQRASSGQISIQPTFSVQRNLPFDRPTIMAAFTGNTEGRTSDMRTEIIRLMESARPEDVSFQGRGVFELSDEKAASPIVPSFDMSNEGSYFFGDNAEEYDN"}, "source": "paper PMC6692485", "target": "FLAG-CRM1 (cellular export receptor CRM1, Chromosome Region Maintenance protein 1) (UniProt O14980)", "assay": "co-IP", "note": "Results are given in words; binding and its absence hold for the method and conditions named. In cells and extracts the contact can be indirect. Some binding calls cover weakened binding; strength is not graded here.", "data": [{"substance": "nucleoprotein (NP) of influenza virus A/WSN/1933 (H1N1), wild type, expressed from pcDNA4.0/TO (from UniProt P15682 1-498)", "values": [{"measurement": "binding", "value": "binds"}]}]}
